These are yes or no findings as the source states them, for the method shown. Binding seen in cells or lysates may run through a third protein. A yes stands for co-enrichment or nearness to the bait. Other partners may have been found. Where a sequence is shown, tags or fusion partners need not be part of it.
Target: T1, HsClp1 (human) (UniProt Q92989)
T1 sequence (looked up): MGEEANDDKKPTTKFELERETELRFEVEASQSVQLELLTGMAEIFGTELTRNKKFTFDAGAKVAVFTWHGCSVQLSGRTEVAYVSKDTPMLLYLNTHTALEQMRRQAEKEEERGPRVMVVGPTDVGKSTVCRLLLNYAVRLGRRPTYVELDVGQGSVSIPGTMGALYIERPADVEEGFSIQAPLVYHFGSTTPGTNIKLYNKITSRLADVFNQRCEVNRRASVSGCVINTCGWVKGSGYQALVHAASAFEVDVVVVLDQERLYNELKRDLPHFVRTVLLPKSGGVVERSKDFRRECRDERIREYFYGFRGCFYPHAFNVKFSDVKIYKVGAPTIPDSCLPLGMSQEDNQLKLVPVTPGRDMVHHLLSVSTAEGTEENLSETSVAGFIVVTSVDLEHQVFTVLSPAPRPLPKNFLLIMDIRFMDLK
Experiment: co-purification (anti-Flag then Ni beads), SDS-PAGE, silver staining, mass spectrometry

binding: binds
B1: His-Flag-HsSen54 (protein, human, UniProt Q7Z6J9 1-526, looked up, not shown: small tags and cut ends)
chain: MEPEPEPAAVEVPAGRVLSARELFAARSRSQKLPQRSHGPKDFLPDGSAAQAERLRRCREELWQLLAEQRVERLGSLVAAEWRPEEGFVELKSPAGKFWQTMGFSEQGRQRLHPEEALYLLECGSIHLFHQDLPLSIQEAYQLLLTDHTVTFLQYQVFSHLKRLGYVVRRFQPSSVLSPYERQLNLDASVQHLEDGDGKRKRSSSSPRSINKKAKALDNSLQPKSLAASSPPPCSQPSQCPEEKPQESSPMKGPGGPFQLLGSLGPSPGPAREGVGCSWESGRAENGVTGAGKRRWNFEQISFPNMASDSRHTLLRAPAPELLPANVAGRETDAESWCQKLNQRKEKLSRREREHHAEAAQFQEDVNADPEVQRCSSWREYKELLQRRQVQRSQRRAPHLWGQPVTPLLSPGQASSPAVVLQHISVLQTTHLPDGGARLLEKSGGLEIIFDVYQADAVATFRKNNPGKPYARMCISGFDEPVPDLCSLKRLSYQSGDVPLIFALVDHGDISFYSFRDFTLPQDVGH

— patent publication US20050053985A1
